Assay results from article PMC3828377.
Results are given in words; binding and its absence hold for the method and conditions named. In cells and extracts the contact can be indirect. Some entries that bind do so weakly or less than the wild type. For some assays here: Where a sequence is shown, tags or fusion partners need not be part of it.

The chains behind the UniProt entries cited, without tags or fusion partners.
UniProt Q09196: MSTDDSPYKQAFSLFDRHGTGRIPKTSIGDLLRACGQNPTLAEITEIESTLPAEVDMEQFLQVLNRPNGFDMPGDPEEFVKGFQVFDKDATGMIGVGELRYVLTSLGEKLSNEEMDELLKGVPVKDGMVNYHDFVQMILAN
UniProt Q9USI6: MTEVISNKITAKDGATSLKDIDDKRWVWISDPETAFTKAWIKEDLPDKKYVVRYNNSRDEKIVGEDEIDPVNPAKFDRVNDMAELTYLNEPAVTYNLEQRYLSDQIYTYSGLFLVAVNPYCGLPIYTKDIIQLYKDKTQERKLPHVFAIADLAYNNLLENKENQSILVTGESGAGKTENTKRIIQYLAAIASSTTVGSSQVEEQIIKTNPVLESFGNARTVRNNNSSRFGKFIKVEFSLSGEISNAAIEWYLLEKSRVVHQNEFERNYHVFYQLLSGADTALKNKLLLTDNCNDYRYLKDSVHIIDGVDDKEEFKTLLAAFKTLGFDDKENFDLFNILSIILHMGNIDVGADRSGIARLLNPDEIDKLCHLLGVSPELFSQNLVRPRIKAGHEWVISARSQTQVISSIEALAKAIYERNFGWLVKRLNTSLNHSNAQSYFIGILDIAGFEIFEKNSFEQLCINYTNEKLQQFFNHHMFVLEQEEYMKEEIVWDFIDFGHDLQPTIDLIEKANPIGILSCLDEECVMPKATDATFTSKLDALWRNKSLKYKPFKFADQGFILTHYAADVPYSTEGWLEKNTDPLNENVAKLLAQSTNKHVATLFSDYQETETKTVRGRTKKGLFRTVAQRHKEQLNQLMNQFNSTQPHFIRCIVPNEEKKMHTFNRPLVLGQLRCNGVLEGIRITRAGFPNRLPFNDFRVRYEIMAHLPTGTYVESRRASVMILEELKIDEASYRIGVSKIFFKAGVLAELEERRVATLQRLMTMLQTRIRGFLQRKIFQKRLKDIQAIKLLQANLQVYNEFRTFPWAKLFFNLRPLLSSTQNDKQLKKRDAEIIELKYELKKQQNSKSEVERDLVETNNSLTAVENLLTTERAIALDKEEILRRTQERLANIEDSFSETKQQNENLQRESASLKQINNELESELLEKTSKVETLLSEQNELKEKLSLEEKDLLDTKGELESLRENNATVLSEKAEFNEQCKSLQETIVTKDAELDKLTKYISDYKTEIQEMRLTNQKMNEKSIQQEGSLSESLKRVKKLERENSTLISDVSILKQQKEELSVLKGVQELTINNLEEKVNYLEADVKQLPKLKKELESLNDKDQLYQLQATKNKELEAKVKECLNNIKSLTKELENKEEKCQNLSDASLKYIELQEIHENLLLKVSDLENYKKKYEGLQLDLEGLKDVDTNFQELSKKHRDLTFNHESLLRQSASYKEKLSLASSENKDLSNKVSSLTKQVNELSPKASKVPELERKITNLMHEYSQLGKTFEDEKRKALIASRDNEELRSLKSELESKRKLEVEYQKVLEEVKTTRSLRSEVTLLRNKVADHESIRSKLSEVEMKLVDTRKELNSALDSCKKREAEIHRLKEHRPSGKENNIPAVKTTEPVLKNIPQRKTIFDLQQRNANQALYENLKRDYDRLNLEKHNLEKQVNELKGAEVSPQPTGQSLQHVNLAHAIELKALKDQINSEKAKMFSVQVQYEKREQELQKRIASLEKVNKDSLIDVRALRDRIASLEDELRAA

Tests used:
[1] = target: GST-tagged Cdc4p (Myo2p light chain) (S. pombe) (UniProt Q09196); experiment: pull-down; Myo2p heavy chain and GST-tagged light chains over-expressed together in S. pombe (wild-type or rng3-65 cells, 25°C or 37°C); one-step purification via the GST-tagged light chains; Myo2p heavy chain detected by anti-Myo2p Western blot
[2] = target: T1, GST-tagged Rlc1p (Myo2p light chain) (S. pombe) (UniProt Q9UUG5); experiment: as above
T1 sequence: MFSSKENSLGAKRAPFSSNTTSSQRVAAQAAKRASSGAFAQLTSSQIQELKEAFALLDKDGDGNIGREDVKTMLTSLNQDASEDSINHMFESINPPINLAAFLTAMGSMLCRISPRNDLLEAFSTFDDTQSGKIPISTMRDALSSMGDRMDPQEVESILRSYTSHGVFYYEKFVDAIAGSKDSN

For “Myo2p heavy chain, full-length (from UniProt Q9USI6 1-1526)”, the binding [1] was “binds” and the binding [2] was “binds”.
